Test results from ChEMBL document CHEMBL4402533 (Eur J Med Chem, 2019).

Tested on: HeLa
Assay: Antiproliferative activity against human HeLa cells
Assay type: functional, cell-based

COc1cccc2c1C(=O)c1c(O)c3c(c(O)c1C2=O)C[C@@](O)(C(=O)CO)C[C@@H]3O[C@H]1C[C@H](N)[C@H](O)[C@H](C)O1 [DOXORUBICIN]
IC50: 1700 nM
